These are yes or no findings as the source states them, for the method shown. Binding seen in cells or lysates may run through a third protein. These calls come from enrichment with a bait or labelling near it, and not all partners need be listed.
Target: T1, N-terminal kinase like protein (NTKL) (human (expressed in the human HCC cell line QGY-7703; species of the cDNA not stated)) (UniProt Q96KG9)
T1 sequence: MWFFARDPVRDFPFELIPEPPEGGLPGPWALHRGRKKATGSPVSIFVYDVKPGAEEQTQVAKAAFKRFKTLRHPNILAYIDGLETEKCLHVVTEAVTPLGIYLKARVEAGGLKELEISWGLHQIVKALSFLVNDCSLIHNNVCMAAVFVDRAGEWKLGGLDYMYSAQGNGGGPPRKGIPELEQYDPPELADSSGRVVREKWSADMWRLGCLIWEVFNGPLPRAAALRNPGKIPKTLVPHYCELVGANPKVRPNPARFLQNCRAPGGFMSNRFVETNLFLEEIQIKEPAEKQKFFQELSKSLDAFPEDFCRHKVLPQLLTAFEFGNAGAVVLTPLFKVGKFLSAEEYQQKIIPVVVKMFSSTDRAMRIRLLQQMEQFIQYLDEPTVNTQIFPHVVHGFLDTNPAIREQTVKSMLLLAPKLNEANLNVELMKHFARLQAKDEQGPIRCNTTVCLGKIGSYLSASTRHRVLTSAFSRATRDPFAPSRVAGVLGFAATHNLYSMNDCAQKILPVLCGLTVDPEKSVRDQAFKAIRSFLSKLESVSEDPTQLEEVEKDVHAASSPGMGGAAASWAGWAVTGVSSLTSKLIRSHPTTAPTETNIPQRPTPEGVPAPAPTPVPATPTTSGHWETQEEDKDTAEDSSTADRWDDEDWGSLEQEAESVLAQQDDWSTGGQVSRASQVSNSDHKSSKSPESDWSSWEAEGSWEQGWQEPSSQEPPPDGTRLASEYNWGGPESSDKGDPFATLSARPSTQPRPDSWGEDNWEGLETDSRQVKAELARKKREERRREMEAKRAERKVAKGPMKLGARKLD
Assay: affinity purification with mass spectrometry; NTKL-7703 cell lysate precipitated with NTKL antibody (rabbit IgG as control) and protein G agarose, 4°C; SDS gel, silver staining; bands seen only in the experimental group cut out and analysed by mass spectrometry

The chains behind the UniProt entries cited, without tags or fusion partners. Residues count along the entry.
UniProt P28799, residues 18-593: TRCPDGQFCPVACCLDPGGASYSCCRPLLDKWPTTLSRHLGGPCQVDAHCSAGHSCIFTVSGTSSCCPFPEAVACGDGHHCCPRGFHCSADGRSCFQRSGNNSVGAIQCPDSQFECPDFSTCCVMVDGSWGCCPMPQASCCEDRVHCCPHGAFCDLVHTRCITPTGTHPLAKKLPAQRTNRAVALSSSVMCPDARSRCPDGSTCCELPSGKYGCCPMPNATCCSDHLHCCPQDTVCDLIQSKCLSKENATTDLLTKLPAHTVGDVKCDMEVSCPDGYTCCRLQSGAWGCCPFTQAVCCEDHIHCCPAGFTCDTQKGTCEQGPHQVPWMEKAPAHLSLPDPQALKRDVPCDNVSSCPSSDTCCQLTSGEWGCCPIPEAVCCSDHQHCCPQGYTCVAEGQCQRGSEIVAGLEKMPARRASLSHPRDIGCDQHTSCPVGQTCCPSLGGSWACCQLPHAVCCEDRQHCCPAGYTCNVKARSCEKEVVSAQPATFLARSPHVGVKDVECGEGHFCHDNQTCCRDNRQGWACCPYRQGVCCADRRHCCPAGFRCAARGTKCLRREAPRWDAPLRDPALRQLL

binding: binds
Substance: granulin (from UniProt P28799 18-593)
